# Measured values: patent publication US20090181975A1, “NEBIVOLOL IN THE TREATMENT OF SEXUAL DYSFUNCTION” (FOREST LABORATORIES HOLDINGS LIMITED, priority 2008, published 2009)
# Legend:
# Type in all cases: in vivo, rat (Sprague-Dawley)
# cGMP in rat plasma [1] = assay: Plasma cGMP in STZ-diabetic rats; conditions: 3 and 10 mg/kg/day for 10 days
# Description: Male Sprague-Dawley rats were used as a model for this study. Diabetes was induced by a single injection of streptozotocin (STZ, 60 mg/kg; i.p.) dissolved in 0.1 M citric acid/trisodic citrate buffer (pH 4-4.5) and was assessed by glycemia determination 72 h after induction. Animals were kept, with free access to food and water, for 8 weeks before experimental assays. Eight weeks after induction of diabetes, rats show altered in vivo vascular function (Angulo et al., Naunyn-Schmiedeberg's Arch Pharmacol, 358(5), 529-37, 1998) and reduced erectile responses (Angulo et al., J. Sex Med., 2, 341-346, 2005). Blood glucose concentration was determined each week and just before the experiment. Insulin levels were not determined. Plasma samples were collected, immediately frozen and stored at −80° C. until extraction for cyclic nucleotide assay. […] The tissues were then extracted by homogenization in 6% trichloroacetic acid, followed by ether (H2O-saturated) extraction and lyophilization. cGMP was determined by ELISA using a kit from Cayman Chemical Co. Eight weeks after untreated diabetes, subcutaneous osmotic minipumps (Alzet, Cupertino, Calif., 2002 model) containing vehicle (PEG300:DMSO, 1:1), atenolol or nebivolol were implanted. […] After 10 days treatment, diabetic rats were anesthetized and erectile responses to cavernosal nerve electrical stimulation (CNES) were determined. […]
# cGMP in rat plasma [2] = assay: Plasma cGMP content by ELISA; conditions: i.v.: atenolol 3 mg/kg, sildenafil 0.3 mg/kg, sodium nitroprusside 0.1 mg/kg
# Description: To determine the plasma cGMP content, Sprague-Dawley rats were anesthetized with urethane (1.25 g/kg). The right carotid artery was catheterized for constant blood pressure and heart rate measurement by means of a pressure transducer connected to a PowerLab data acquisition system (ADInstruments). The left external jugular vein was catheterized for saline or drug infusion. After administering the respective treatments, rat plasma samples were collected, immediately frozen and stored at −80° C. until extraction for cyclic nucleotide assay. cGMP was determined by ELISA using a kit from Cayman Chemical Co. Plasmatic cGMP levels were determined 10 minutes after nebivolol administration.
# [3] = system: thiobarbituric acid reactive substances (TBARS) in rat serum; assay: Serum TBARS in STZ-diabetic rats; conditions: administered for 10 days; groups with and without sildenafil pooled
# Description: Male Sprague-Dawley rats were used as a model for this study. Diabetes was induced by a single injection of streptozotocin (STZ, 60 mg/kg; i.p.) dissolved in 0.1 M citric acid/trisodic citrate buffer (pH 4-4.5) and was assessed by glycemia determination 72 h after induction. Animals were kept, with free access to food and water, for 8 weeks before experimental assays. Eight weeks after induction of diabetes, rats show altered in vivo vascular function (Angulo et al., Naunyn-Schmiedeberg's Arch Pharmacol, 358(5), 529-37, 1998) and reduced erectile responses (Angulo et al., J. Sex Med., 2, 341-346, 2005). Blood glucose concentration was determined each week and just before the experiment. Insulin levels were not determined. […] Thiobarbituric acid reactive substances (TBARS) were determined by reacting thiobarbituric acid with serum samples at 70° C. for 30 min and reading absorbance at 532 nm. Serum concentrations of TBARS were determined by using malondialdehyde (MDA) as a standard. […] Results were expressed as ng/ml of MDA equivalents. […] After 10 days treatment, diabetic rats were anesthetized and erectile responses to cavernosal nerve electrical stimulation (CNES) were determined. […] Forty five minutes later, erectile responses to CNES were again evaluated, and 5 min after CNES application, blood was collected for obtaining plasma and serum, and the penis was excised. […]
compound,measurement,setting,value
CC(C)NCC(O)COc1ccc(CC(N)=O)cc1 (stereo not shown) [atenolol],effect on plasma cGMP content in diabetic rats,cGMP in rat plasma [1],did not result in significant modifications
same,influence on the effects of sildenafil on plasma cGMP content in diabetic rats,cGMP in rat plasma [1]; sildenafil 0.3 mg/kg i.v.,did not influence
same,effect on plasma cGMP levels,cGMP in rat plasma [2],did not significantly modify
same,effect on TBARS levels in diabetic rats,[3],trend to reduce
